# Laboratory results: the supplement of paper PMC7666118
# Protein sequences, listed by entry. Tags and fused reporters are not part of them. Lines headed by an entry give the natural chain unless they say otherwise; changes in a name come on top.
# UniProt Q9NRF8: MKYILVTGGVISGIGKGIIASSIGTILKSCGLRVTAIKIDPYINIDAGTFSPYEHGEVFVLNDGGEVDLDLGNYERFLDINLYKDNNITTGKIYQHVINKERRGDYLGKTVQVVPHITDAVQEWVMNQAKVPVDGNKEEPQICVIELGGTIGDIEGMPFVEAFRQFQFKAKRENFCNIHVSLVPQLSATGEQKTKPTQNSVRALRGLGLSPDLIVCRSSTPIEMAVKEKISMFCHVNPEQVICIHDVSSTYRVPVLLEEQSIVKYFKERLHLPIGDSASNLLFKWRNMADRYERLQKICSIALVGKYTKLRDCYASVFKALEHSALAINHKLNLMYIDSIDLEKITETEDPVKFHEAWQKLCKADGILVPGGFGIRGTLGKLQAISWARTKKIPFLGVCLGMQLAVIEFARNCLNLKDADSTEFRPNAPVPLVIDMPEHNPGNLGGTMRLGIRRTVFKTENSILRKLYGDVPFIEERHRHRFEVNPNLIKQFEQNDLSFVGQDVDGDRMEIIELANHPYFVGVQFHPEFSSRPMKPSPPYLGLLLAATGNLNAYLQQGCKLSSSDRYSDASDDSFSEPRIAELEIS
# UniProt Q2TBE0: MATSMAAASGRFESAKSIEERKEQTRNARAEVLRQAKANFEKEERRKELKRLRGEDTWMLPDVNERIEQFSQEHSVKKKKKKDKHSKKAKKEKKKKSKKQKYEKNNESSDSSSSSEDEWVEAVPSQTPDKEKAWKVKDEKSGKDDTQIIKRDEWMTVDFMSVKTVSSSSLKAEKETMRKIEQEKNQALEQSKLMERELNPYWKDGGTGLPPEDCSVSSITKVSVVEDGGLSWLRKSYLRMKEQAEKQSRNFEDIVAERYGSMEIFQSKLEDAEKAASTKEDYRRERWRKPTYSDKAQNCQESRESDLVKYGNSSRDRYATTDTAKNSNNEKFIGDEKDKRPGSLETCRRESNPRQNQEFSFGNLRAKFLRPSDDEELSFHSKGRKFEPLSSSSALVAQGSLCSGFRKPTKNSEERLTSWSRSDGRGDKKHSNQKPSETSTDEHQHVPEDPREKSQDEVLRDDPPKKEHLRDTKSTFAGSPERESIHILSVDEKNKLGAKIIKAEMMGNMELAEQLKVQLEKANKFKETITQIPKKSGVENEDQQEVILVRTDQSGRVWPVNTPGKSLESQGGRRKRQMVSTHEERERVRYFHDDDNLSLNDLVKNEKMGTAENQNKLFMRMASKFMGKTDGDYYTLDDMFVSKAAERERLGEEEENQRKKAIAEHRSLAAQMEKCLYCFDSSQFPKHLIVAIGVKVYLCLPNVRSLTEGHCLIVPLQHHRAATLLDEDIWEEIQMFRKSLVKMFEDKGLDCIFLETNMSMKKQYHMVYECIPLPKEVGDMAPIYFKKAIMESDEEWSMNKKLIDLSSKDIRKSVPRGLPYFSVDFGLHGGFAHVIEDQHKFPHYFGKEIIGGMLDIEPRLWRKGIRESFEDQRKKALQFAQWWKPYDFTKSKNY
# UniProt Q8N6G5: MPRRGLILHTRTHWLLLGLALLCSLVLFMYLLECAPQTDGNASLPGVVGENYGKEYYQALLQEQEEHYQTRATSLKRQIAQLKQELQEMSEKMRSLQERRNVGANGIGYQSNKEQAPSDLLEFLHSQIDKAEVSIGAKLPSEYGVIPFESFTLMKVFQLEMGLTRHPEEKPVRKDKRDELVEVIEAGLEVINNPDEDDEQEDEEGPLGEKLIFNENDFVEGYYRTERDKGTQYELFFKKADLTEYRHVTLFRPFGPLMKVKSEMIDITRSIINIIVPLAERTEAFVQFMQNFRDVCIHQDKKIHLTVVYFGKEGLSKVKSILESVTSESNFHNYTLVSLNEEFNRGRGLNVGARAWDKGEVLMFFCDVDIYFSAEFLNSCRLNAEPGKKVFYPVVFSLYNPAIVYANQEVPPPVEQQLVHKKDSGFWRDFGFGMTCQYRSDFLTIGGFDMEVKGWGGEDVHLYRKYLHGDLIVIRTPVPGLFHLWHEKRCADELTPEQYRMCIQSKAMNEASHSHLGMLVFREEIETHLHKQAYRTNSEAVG
# UniProt Q96DF8: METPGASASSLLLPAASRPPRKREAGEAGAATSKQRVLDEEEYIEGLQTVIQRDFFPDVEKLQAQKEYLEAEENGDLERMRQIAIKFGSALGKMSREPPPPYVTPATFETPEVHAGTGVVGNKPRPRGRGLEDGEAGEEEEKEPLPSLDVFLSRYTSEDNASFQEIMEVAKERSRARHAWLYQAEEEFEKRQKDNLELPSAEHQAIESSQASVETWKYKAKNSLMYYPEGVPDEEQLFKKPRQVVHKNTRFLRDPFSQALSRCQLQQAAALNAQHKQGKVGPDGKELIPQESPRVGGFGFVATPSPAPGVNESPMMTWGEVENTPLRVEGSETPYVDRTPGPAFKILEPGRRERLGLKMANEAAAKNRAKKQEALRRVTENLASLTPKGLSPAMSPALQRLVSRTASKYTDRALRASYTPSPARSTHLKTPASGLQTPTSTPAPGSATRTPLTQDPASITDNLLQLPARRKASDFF
# UniProt O95865: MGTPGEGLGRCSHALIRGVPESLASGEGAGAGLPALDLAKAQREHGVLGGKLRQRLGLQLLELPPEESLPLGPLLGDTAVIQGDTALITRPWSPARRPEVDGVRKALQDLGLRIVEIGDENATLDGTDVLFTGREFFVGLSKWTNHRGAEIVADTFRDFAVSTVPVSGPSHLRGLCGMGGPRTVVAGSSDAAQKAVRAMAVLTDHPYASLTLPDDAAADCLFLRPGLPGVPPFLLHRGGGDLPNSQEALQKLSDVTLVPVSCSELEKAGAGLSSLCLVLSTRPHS
# UniProt Q9UJU6: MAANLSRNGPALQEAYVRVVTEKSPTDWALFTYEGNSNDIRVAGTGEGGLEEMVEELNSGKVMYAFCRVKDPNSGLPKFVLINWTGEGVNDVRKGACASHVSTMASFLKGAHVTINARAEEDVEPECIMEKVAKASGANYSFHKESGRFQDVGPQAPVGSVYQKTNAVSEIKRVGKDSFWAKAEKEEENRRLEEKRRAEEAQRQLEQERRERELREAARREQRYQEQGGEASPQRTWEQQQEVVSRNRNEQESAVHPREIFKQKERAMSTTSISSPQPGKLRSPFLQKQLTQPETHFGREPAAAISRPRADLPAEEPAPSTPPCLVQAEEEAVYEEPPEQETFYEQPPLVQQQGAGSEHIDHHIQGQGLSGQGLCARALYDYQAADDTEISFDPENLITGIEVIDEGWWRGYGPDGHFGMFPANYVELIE
# UniProt P19784, whole entry, looked up: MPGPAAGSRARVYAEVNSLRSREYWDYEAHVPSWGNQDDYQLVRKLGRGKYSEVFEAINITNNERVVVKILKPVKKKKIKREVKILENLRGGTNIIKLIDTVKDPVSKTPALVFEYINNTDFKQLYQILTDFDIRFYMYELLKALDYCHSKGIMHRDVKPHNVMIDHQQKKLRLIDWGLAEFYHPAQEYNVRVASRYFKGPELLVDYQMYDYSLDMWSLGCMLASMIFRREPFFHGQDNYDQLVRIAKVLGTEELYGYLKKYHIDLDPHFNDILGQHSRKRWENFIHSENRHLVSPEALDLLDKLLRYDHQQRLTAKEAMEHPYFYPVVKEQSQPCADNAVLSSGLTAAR
# UniProt Q9NVH1: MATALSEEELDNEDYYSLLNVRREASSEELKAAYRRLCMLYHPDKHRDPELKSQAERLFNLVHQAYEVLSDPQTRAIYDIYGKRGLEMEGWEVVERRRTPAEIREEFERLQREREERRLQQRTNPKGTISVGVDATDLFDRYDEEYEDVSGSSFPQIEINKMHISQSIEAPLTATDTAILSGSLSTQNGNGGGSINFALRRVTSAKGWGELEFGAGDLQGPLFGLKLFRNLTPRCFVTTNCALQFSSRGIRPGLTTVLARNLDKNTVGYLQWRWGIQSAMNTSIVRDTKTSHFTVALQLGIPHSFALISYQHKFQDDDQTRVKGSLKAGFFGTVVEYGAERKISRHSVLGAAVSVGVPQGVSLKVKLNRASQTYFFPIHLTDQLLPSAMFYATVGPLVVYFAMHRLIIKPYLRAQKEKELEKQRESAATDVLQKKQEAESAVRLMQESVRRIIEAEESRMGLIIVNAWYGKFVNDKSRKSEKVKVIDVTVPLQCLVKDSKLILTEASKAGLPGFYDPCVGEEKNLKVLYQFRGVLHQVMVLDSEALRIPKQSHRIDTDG
# UniProt Q69YN2: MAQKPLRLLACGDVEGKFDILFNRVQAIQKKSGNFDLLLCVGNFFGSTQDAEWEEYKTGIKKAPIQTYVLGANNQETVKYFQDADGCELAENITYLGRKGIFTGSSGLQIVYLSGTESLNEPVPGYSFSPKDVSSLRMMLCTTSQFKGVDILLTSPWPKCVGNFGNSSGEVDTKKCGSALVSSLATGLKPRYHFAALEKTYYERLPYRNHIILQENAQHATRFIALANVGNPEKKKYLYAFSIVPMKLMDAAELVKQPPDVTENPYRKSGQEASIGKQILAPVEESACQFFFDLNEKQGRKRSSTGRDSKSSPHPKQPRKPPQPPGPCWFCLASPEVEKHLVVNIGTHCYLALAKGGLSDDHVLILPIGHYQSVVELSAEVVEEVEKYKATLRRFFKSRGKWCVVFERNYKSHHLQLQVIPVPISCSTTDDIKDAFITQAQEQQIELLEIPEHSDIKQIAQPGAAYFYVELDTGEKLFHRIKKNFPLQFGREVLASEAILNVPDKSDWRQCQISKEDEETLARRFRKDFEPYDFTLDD
# UniProt Q96EP5: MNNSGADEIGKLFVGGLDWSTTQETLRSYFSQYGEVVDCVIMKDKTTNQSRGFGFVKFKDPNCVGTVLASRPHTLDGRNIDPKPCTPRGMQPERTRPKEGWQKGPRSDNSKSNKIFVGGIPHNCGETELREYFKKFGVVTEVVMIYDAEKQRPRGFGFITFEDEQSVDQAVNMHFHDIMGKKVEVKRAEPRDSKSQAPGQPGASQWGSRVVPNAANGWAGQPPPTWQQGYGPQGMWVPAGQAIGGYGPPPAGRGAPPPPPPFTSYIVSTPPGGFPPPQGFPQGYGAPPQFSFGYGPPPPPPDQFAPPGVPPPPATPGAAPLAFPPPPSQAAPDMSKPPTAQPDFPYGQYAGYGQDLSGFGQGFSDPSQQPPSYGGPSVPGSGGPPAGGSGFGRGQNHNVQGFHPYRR
# UniProt O75907: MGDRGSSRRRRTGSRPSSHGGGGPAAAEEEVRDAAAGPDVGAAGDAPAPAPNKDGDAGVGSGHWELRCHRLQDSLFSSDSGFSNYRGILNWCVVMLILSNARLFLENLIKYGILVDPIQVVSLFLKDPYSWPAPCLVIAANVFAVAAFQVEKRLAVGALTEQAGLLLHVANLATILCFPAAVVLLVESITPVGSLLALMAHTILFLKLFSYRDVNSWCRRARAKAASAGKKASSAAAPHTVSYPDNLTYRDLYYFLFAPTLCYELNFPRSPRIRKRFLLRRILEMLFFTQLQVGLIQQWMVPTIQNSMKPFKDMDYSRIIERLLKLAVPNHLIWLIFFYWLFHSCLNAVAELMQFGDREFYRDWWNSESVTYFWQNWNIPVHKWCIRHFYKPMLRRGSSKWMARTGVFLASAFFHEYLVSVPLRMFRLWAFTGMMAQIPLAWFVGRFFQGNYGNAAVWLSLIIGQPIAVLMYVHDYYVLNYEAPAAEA
# UniProt P99999: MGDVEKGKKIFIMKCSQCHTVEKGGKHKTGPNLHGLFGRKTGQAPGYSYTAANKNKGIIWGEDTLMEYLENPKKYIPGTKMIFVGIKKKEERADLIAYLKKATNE
# UniProt O95786: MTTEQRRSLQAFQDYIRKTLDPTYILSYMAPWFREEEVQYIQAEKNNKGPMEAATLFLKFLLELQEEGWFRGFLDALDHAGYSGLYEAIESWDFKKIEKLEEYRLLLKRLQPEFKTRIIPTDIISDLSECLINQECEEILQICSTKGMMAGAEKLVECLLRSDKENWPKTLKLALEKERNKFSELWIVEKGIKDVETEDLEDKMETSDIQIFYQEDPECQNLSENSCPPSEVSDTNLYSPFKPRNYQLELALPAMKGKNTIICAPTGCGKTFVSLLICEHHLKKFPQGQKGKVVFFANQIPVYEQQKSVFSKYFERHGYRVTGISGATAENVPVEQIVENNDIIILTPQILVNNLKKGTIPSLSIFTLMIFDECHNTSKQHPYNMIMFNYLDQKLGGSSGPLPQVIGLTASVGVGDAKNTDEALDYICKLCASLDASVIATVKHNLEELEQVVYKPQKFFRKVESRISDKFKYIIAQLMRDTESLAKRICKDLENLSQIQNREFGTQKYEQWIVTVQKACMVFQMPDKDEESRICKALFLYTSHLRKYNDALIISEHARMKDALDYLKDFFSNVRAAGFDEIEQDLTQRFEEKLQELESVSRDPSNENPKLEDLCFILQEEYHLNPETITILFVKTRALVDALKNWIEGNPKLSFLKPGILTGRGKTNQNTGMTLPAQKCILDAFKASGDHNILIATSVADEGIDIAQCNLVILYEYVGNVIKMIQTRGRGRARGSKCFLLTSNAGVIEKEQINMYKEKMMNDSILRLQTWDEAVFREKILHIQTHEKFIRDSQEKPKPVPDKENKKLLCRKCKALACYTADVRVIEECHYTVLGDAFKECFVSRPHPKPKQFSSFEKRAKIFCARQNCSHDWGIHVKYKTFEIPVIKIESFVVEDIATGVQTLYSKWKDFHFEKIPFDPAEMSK
# Some of the results follow.
# Compound: COc1ccc(Cn2ccc3cc(C)c(C(=O)NO)cc32)cc1
# Assay: dose-dependent thermal stabilisation call (2D-TPP, DLPTP, 10% FDR) (binary (1 = stabilised)); higher = stabilised by the compound
# Conditions: system: HL-60 intact cells; concentration range 0.04-10 µM
# Description: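 2D thermal proteome profiling in intact HL-60 cells treated with BRD-3811 (0, 0.04, 0.29, 2, 10 uM) for 90 min at 37 C, then heated 3 min at one of 12 temperatures (42-63.9 C). Soluble protein was quantified by TMT10 MS. The value is the DLPTP call of the paper: dose-dependent thermal stabilisation over all temperatures at 10% FDR (F-test of a dose-response against a flat model); one experiment, one call per tested protein.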
row,Target,dose-dependent thermal stabilisation call
1,CSDA (UniProt P16989),inactive: 0
2,DNASE2 (UniProt O00115),inactive: 0
3,CTPS2 (UniProt Q9NRF8),inactive: 0
4,DCTN4 (UniProt Q9UJW0),inactive: 0
5,CWF19L2 (UniProt Q2TBE0),inactive: 0
6,CSGALNACT2 (UniProt Q8N6G5),inactive: 0
7,DNAJA3 (UniProt Q96EY1),inactive: 0
8,CUL5 (UniProt Q93034),inactive: 0
9,DCUN1D1 (UniProt Q96GG9),inactive: 0
10,DCK (UniProt P27707),inactive: 0
11,DNAJC9 (UniProt Q8WXX5),inactive: 0
12,DGCR14 (UniProt Q96DF8),inactive: 0
13,DNM1 (UniProt Q05193),inactive: 0
14,DLST (UniProt P36957),inactive: 0
15,DDAH2 (UniProt O95865),inactive: 0
16,DGCR8 (UniProt Q8WYQ5),inactive: 0
17,DBNL (UniProt Q9UJU6),inactive: 0
18,DEPDC7 (UniProt Q96QD5),inactive: 0

row,Target,dose-dependent thermal stabilisation call
1,DHX9 (UniProt Q08211),inactive: 0
2,DDX60 (UniProt Q8IY21),inactive: 0
3,CSNK2A2 (UniProt P19784),inactive: 0
4,DDB2 (UniProt Q92466),inactive: 0
5,DNAJC11 (UniProt Q9NVH1),inactive: 0
6,DERL1 (UniProt Q9BUN8),inactive: 0
7,CWF19L1 (UniProt Q69YN2),inactive: 0
8,DDX52 (UniProt Q9Y2R4),inactive: 0
9,DIS3L2 (UniProt Q8IYB7),inactive: 0
10,CYBASC3 (UniProt Q8NBI2),inactive: 0
11,DAZAP1 (UniProt Q96EP5),inactive: 0
12,DIMT1L (UniProt Q9UNQ2),inactive: 0
13,DGAT1 (UniProt O75907),inactive: 0
14,DKFZP434B0335,inactive: 0
15,CYCS (UniProt P99999),inactive: 0
16,DDX58 (UniProt O95786),inactive: 0
17,DHRS1 (UniProt Q96LJ7),inactive: 0
18,CYFIP2 (UniProt Q96F07),inactive: 0

# Exported bar-delimited: part of the list above.
row | Target | dose-dependent thermal stabilisation call
8 | DDX52 (UniProt Q9Y2R4) | inactive: 0
12 | DIMT1L (UniProt Q9UNQ2) | inactive: 0
14 | DKFZP434B0335 | inactive: 0
